We go through one molecule from publication PMC8173199.

This experiment concerns the target T1, non-expressor of pathogenesis-related genes 1 (NPR1) fused to GFP (Arabidopsis thaliana), P93002.
T1 chain: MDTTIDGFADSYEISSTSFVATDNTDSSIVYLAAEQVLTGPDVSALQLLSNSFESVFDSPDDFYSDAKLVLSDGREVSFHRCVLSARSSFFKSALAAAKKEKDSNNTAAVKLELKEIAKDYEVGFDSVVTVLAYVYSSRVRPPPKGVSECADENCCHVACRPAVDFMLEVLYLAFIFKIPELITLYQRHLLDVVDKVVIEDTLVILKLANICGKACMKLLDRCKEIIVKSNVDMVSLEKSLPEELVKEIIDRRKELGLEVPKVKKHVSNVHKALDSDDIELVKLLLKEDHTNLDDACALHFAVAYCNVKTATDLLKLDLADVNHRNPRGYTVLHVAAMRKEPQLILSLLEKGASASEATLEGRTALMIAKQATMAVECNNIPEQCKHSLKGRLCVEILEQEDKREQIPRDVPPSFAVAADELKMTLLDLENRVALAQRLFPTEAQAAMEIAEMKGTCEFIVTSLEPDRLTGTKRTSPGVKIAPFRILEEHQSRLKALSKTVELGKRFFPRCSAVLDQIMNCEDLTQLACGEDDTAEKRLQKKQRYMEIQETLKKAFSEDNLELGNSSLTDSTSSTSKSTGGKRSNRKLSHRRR
Put plainly: non-reducing SDS-PAGE with immunoblot; total protein (30 ug) of 35S::NPR1-GFP (npr1-2) plants treated with 100 uM naringenin (time course), 200 uM SA or 50 uM PD98059; SDS-PAGE with or without DTT in the sample buffer (62.5 mM Tris-HCl pH 6.8, 10% glycerol, 1% LDS); immunoblot with polyclonal anti-NPR1; oligomeric (O) and monomeric (M) forms. As to conditions: remark: other sources report otherwise. Background: In western blotting, separated proteins are transferred to a membrane and probed.

Results are given in words; binding and its absence hold for the method and conditions named. Some binding calls cover weakened binding; strength is not graded here. Sequences can lack the tags named with a protein.

B1: non-expressor of pathogenesis-related genes 1 (NPR1) fused to GFP, P93002 1-593 (protein)
chain: MDTTIDGFADSYEISSTSFVATDNTDSSIVYLAAEQVLTGPDVSALQLLSNSFESVFDSPDDFYSDAKLVLSDGREVSFHRCVLSARSSFFKSALAAAKKEKDSNNTAAVKLELKEIAKDYEVGFDSVVTVLAYVYSSRVRPPPKGVSECADENCCHVACRPAVDFMLEVLYLAFIFKIPELITLYQRHLLDVVDKVVIEDTLVILKLANICGKACMKLLDRCKEIIVKSNVDMVSLEKSLPEELVKEIIDRRKELGLEVPKVKKHVSNVHKALDSDDIELVKLLLKEDHTNLDDACALHFAVAYCNVKTATDLLKLDLADVNHRNPRGYTVLHVAAMRKEPQLILSLLEKGASASEATLEGRTALMIAKQATMAVECNNIPEQCKHSLKGRLCVEILEQEDKREQIPRDVPPSFAVAADELKMTLLDLENRVALAQRLFPTEAQAAMEIAEMKGTCEFIVTSLEPDRLTGTKRTSPGVKIAPFRILEEHQSRLKALSKTVELGKRFFPRCSAVLDQIMNCEDLTQLACGEDDTAEKRLQKKQRYMEIQETLKKAFSEDNLELGNSSLTDSTSSTSKSTGGKRSNRKLSHRRR
Regarding B1, the binding entry is “binds”.
